The record followed here is patent US20220064302A1.

The target of the test is Cyno PD-1 (cyno). Briefly: BLI (Octet Red96), mAb on AHC biosensor, cyno PD-1 as analyte.

Results are given in words; binding and its absence hold for the method and conditions named.

B1: A1 (antibody, V domains shown)
VH: QVQLVESGGGVVQPGRSLRLSCAASGFTFSNYGMHWVRQAPGKGLEWVAVIWYDGSNKYYTDSVKGRFTISRDNSKNTLYLQMNSLRAEDTAVYYCAGGGNYYGDYWGQGTLVTVSS
VL: DIQMTQSPSSLSASVGDRVTITCRASQGIRNDLGWYQQKPGKAPKRLIYVASSLQSGVPSRFSGSGSGTEFTLTISSLQPEDFATYYCLQHNSYPLTFGGGTKVEIKR
Regarding B1, the binding entry is given as “no binding (tested: antigen dilutions beginning at 300 nM)”.

B2: A3 (antibody, V domains shown)
VH: QVQLVESGGGEVQPGRSLRLSCAASGFTFSDYGMHWVRQAPGKGLEWVAVIWYDGSNKYYADSVKGRFTISRDNSKNTLYLQMNSLRAEDTAVYYCAGGGSYWGDYWGQGTLVTVSS
VL: DIQMTQSPSSLSASVGDRVTITCRASQGIRNELGWYQQKPGKAPKRLIYAASSLQSGVPSRFSGSGSGTEFTLTISSLQPEDFATYYCLQHYIYPWTFGQGTKVEIKR
B2: the binding entry was “no binding (tested: antigen dilutions beginning at 300 nM)”.
